Some of the results follow.
Experiments:
Assay in all cases: log2 fold change, soluble protein after heating vs DMSO (PISA); higher = thermal stabilisation; K562 cells, 10 uM, 30 min; active = over 0.2 and 3.5 SD of the protein, either way, in both replicates (recomputed)
saracatinib = compound: CN1CCN(CCOc2cc(OC3CCOCC3)c3c(Nc4c(Cl)ccc5c4OCO5)ncnc3c2)CC1 [saracatinib]
Procedure, shortened: (§1)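 For each measurement, 10 μM compound was applied for 30 min to K562 cells at 2×10^6 cells/mL. Aliquots were heated for 3 min across 48°C-58°C, pooled, and extracted in PBS with 0.5% NP-40 at 4°C; the supernatant after 21,000xg for 90 min was soluble protein. This was quantified by TMTpro 16plex LC-MS/MS with channel sums equalised, and thermal stability was reported relative to control samples from duplicates, on a log2 fold-change scale.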

Sequences of proteins named here, by UniProt entry; tags and fusion partners are left off. A change or cut given only in a name is not applied to a line headed by its entry.
UniProt O00303, whole entry, looked up: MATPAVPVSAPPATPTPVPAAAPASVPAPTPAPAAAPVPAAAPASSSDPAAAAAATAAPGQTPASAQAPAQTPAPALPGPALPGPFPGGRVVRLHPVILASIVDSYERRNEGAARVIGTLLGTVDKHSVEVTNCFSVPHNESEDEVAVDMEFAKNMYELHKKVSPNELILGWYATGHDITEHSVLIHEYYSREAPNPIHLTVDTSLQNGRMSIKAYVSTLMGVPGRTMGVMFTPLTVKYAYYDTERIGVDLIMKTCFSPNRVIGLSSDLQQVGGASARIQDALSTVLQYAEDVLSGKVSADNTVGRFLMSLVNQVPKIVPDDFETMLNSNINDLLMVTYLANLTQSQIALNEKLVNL
UniProt P19525: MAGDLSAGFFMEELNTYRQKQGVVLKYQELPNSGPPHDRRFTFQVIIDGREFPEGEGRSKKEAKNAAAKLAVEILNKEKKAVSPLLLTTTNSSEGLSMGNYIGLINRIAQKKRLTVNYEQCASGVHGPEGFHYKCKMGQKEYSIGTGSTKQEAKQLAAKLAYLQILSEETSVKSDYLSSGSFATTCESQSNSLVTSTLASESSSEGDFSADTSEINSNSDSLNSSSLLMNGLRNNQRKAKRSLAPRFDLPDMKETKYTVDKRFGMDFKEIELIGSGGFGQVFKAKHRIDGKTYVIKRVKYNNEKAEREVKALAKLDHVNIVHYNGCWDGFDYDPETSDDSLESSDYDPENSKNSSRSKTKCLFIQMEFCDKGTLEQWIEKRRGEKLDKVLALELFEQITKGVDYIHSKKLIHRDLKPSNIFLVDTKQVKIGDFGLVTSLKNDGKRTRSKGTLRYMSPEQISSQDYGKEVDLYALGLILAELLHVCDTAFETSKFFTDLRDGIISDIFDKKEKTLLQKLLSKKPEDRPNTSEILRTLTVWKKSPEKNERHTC
UniProt Q9BQ52: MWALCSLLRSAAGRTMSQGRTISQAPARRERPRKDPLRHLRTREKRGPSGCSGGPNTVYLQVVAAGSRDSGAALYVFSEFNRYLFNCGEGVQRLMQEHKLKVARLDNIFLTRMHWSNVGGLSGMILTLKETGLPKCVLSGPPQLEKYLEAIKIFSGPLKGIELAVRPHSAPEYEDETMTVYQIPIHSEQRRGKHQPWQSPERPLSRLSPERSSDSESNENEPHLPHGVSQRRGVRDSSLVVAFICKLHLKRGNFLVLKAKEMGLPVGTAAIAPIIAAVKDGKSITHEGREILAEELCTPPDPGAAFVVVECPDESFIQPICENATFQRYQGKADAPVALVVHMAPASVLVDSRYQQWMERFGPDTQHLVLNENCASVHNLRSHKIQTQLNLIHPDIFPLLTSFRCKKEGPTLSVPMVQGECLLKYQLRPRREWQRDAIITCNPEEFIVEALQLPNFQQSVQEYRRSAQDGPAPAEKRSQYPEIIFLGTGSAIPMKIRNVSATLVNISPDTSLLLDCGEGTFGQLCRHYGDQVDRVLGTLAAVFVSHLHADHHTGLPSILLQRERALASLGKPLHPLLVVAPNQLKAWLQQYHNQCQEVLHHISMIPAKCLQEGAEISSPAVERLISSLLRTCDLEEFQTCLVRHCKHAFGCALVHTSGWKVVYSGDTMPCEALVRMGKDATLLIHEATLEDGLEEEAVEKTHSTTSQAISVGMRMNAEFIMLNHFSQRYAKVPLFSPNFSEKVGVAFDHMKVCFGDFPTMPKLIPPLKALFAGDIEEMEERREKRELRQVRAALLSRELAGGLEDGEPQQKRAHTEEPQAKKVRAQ
UniProt P41091, whole entry, looked up: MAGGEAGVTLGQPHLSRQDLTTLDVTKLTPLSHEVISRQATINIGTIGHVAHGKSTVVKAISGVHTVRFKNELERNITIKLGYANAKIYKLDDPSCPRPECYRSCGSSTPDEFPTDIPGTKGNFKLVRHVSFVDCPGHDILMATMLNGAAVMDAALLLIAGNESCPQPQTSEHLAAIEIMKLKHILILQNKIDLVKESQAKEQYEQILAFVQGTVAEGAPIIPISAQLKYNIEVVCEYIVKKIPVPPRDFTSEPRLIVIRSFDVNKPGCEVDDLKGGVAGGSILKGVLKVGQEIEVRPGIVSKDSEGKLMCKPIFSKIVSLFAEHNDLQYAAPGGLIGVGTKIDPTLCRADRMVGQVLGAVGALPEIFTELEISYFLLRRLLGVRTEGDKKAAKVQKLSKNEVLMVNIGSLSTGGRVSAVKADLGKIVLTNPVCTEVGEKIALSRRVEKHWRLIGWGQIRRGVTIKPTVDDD
UniProt Q9UI10, whole entry, looked up: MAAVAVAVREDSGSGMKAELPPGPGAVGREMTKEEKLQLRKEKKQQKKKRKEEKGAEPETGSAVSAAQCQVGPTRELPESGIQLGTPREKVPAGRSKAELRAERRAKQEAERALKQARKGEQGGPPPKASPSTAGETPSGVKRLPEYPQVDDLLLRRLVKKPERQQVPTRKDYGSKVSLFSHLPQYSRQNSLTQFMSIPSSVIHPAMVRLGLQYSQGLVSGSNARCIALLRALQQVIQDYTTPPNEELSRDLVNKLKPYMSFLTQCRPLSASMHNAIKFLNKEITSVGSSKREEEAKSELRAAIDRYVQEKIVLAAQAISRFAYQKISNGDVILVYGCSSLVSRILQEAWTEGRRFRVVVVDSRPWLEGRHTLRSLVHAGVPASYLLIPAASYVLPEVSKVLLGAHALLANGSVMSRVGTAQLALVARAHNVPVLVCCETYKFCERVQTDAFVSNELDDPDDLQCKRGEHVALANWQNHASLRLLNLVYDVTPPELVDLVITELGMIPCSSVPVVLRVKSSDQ
UniProt P32519: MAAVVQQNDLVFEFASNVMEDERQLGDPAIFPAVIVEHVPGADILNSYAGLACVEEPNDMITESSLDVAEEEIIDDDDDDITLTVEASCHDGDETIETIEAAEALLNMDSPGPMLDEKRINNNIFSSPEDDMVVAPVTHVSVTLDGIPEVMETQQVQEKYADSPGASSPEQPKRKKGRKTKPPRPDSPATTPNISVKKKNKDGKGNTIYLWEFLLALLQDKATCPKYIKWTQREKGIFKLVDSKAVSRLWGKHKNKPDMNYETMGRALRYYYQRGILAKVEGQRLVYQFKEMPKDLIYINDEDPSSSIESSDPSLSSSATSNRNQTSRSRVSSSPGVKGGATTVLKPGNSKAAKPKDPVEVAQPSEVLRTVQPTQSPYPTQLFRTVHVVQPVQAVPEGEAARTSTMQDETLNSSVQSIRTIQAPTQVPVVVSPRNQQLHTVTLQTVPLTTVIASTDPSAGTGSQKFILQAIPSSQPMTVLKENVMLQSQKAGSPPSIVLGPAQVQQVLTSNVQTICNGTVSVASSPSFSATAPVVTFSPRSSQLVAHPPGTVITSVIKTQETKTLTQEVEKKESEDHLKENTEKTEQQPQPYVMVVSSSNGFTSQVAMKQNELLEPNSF
UniProt P29692: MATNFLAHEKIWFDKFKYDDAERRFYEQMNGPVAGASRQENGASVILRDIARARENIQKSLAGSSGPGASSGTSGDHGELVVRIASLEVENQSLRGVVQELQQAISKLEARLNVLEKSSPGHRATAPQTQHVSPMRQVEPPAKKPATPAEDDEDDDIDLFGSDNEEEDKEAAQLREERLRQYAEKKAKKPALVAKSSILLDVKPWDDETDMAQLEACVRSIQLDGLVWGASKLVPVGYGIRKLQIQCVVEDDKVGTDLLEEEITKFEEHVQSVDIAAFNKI
UniProt Q04637, whole entry, looked up: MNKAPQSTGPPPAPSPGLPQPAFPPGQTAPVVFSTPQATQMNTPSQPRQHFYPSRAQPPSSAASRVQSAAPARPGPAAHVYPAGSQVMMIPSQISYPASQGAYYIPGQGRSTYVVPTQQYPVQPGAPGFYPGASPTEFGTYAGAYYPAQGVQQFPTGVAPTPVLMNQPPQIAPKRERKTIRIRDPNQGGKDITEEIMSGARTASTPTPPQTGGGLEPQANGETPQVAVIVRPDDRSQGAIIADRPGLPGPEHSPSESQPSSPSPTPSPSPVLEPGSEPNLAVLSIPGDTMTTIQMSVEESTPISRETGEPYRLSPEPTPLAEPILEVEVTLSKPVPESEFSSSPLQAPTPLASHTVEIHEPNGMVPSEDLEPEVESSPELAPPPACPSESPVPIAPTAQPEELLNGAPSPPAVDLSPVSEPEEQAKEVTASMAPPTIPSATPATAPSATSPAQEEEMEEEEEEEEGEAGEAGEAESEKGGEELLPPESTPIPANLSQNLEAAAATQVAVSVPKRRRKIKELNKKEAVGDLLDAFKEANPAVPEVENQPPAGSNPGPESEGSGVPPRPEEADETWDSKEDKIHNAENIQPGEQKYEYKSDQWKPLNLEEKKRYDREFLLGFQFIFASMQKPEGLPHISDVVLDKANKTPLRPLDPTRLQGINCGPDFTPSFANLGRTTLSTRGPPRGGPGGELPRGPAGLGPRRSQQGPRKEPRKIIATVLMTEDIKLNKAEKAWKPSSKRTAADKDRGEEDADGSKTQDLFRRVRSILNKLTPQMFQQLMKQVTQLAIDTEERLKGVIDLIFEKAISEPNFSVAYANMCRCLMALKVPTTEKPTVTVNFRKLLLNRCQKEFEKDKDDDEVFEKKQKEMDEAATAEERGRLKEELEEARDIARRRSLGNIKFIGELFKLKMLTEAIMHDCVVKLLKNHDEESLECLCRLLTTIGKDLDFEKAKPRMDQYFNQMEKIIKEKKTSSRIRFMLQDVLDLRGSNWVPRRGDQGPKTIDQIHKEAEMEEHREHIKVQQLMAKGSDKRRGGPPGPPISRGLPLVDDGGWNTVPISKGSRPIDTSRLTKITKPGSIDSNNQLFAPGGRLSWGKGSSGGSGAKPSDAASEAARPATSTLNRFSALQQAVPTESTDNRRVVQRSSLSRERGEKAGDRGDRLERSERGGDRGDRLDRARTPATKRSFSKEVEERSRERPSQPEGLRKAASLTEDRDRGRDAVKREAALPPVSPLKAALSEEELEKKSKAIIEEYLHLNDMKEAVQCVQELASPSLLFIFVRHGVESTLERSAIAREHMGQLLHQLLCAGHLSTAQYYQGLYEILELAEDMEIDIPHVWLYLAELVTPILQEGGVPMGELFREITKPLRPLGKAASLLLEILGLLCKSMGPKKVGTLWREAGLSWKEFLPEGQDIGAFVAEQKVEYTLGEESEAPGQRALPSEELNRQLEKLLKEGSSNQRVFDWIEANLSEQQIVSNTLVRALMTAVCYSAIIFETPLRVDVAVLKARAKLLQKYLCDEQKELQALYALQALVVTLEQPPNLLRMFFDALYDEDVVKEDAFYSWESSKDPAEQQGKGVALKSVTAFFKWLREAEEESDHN
UniProt Q7Z2Z2: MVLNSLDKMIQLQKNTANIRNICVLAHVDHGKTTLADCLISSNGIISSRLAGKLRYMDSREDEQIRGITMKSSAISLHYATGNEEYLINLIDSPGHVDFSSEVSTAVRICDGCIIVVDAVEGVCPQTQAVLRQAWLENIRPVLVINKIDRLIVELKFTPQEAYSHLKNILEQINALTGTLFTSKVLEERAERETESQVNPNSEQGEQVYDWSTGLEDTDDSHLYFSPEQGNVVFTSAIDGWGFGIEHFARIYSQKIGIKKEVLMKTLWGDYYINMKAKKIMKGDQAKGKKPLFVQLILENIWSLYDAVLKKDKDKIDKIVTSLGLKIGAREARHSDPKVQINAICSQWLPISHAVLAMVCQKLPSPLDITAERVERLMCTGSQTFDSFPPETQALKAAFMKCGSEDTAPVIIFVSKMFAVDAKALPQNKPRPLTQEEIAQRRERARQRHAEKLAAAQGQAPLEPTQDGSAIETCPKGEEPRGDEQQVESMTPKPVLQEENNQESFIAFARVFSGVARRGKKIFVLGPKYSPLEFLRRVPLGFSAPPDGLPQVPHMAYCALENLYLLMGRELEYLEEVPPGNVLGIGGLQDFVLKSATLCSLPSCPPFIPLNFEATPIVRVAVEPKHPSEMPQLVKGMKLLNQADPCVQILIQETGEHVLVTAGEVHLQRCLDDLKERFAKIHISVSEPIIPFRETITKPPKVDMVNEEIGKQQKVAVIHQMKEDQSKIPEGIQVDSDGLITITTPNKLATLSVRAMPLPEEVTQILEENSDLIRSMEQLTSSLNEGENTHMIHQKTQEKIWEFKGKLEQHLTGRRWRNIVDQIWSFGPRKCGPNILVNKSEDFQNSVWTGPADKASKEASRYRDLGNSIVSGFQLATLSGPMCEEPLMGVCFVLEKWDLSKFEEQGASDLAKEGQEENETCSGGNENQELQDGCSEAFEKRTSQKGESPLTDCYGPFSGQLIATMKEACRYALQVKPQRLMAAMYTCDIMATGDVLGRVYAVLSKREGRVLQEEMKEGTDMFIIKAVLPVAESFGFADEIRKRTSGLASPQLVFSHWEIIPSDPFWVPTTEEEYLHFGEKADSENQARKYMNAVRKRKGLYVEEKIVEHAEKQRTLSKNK
UniProt P06730, whole entry, looked up: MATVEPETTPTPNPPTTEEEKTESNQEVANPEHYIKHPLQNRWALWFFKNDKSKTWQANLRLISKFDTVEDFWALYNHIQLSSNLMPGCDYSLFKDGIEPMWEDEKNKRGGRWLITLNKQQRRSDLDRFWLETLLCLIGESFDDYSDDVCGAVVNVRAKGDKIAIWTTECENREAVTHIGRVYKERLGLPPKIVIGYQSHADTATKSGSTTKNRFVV

sotrastaurin = compound: CN1CCN(c2nc(C3=C(c4c[nH]c5ccccc45)C(=O)NC3=O)c3ccccc3n2)CC1 [sotrastaurin]
Procedure, shortened: as §1

alvocidib = compound: CN1CC[C@H](c2c(O)cc(O)c3c(=O)cc(-c4ccccc4Cl)oc23)[C@H](O)C1 [alvocidib]
Procedure, shortened: as §1

Tubastatin A = compound: CN1CCc2c(c3ccccc3n2Cc2ccc(C(=O)NO)cc2)C1 [Tubastatin A]
Procedure, shortened: as §1

[1] = compound: CNC(=O)C1=CC=CC=C1NC2=NC(=NC=C2Cl)NC3=C(C=C(C=C3)N4CCOCC4)OC
Procedure, shortened: as §1

defactinib = compound: CNC(=O)c1ccc(Nc2ncc(C(F)(F)F)c(NCc3nccnc3N(C)S(C)(=O)=O)n2)cc1 [defactinib]
Procedure, shortened: as §1

[2] = compound: CNc1nc(-c2ccc3c(N)n[nH]c3c2)cc(N2C[C@@H](C(=O)NC3CCCCC3)CC[C@H]2C)n1
Procedure, shortened: as §1

[3] = compound: COC(=O)[C@H](CCSC)NC(=O)C1=C(C=C(C=C1)NC[C@H](CS)N)C2=CC=CC=C2
Procedure, shortened: as §1

[4] = compound: COC1=CC=C(C=C1)CN2C=CC3=C2C=C(C=C3)C(=O)NO
Procedure, shortened: as §1

filanesib = compound: CON(C)C(=O)N1N=C(c2cc(F)ccc2F)S[C@@]1(CCCN)c1ccccc1 [filanesib]
Procedure, shortened: as §1

zotarolimus = compound: CO[C@H]1C[C@@H]2CC[C@@H](C)[C@@](O)(O2)C(=O)C(=O)N2CCCC[C@H]2C(=O)O[C@H]([C@H](C)C[C@@H]2CC[C@H](n3cnnn3)[C@H](OC)C2)CC(=O)[C@H](C)/C=C(\C)[C@@H](O)[C@@H](OC)C(=O)[C@H](C)C[C@H](C)/C=C/C=C/C=C/1C [zotarolimus]
Procedure, shortened: as §1

idasanutlin = compound: COc1cc(C(=O)O)ccc1NC(=O)[C@@H]1N[C@@H](CC(C)(C)C)[C@](C#N)(c2ccc(Cl)cc2F)[C@H]1c1cccc(Cl)c1F [idasanutlin]
Procedure, shortened: as §1

alisertib = compound: COc1cc(Nc2ncc3c(n2)-c2ccc(Cl)cc2C(c2c(F)cccc2OC)=NC3)ccc1C(=O)O [alisertib]
Procedure, shortened: as §1

gefitinib = compound: COc1cc2ncnc(Nc3ccc(F)c(Cl)c3)c2cc1OCCCN1CCOCC1 [gefitinib]
Procedure, shortened: as §1

[5] = compound: COc1cccc2cc(-c3nc([C@H]4CC[C@H](C(=O)O)CC4)n4ncnc(N)c34)[nH]c12
Procedure, shortened: as §1

rucaparib = compound: CNCc1ccc(-c2[nH]c3cc(F)cc4c3c2CCNC4=O)cc1 [rucaparib]
Procedure, shortened: as §1

encorafenib = compound: COC(=O)N[C@@H](C)CNc1nccc(-c2cn(C(C)C)nc2-c2cc(Cl)cc(NS(C)(=O)=O)c2F)n1 [encorafenib]
Procedure, shortened: as §1

[6] = compound: COc1cc2nc(-c3cc(F)ccc3O)nc(N[C@@H]3CNC[C@H]3C(C)(C)O)c2cc1OC
Procedure, shortened: as §1

lapatinib = compound: CS(=O)(=O)CCNCc1ccc(-c2ccc3ncnc(Nc4ccc(OCc5cccc(F)c5)c(Cl)c4)c3c2)o1 [lapatinib]
Procedure, shortened: as §1

pictilisib = compound: CS(=O)(=O)N1CCN(Cc2cc3nc(-c4cccc5[nH]ncc45)nc(N4CCOCC4)c3s2)CC1 [pictilisib]
Procedure, shortened: as §1

Measured: log2 fold change

EIF3G (UniProt K7ER90)
inactive: saracatinib -0.169 | sotrastaurin -0.118 | alvocidib -0.048 | Tubastatin A 0.021 | [1] 0.071 | defactinib -0.039 | [2] -0.094 | [3] -0.022 | [4] 0.108 | filanesib 0.057 | zotarolimus -0.194 | idasanutlin -0.039 | alisertib 0.02 | gefitinib -0.148 | [5] 0.018

EIF3F (UniProt O00303)
inactive: saracatinib -0.052 | sotrastaurin -0.141 | alvocidib -0.014 | Tubastatin A 0.052 | [1] 0.002 | defactinib -0.021 | rucaparib 0.118 | [2] 0.028 | encorafenib 0.064 | [3] -0.063 | [4] -0.046 | filanesib 0.037 | zotarolimus 0.075 | idasanutlin -0.021 | alisertib -0.043 | [6] -0.002 | gefitinib -0.003 | [5] -0.111 | lapatinib 0.002 | pictilisib -0.01

EIF2AK2 (UniProt P19525)
inactive: saracatinib -0.099 | sotrastaurin -0.344 | alvocidib 0.176 | Tubastatin A 0.145 | [1] 0.012 | defactinib 0.3 | rucaparib 0.639 | [2] 0.13 | encorafenib 0.233 | [3] 0.114 | [4] -0.079 | filanesib 0.453 | zotarolimus 0.056 | idasanutlin 0.407 | alisertib -0.018 | [5] -0.366 | pictilisib -0.207

ELAC2 (UniProt Q9BQ52)
inactive: saracatinib 0.033 | sotrastaurin 0.055 | alvocidib -0.018 | Tubastatin A -0.049 | [1] -0.03 | defactinib -0.017 | rucaparib -0.024 | [2] -0.005 | encorafenib -0.017 | [3] -0.003 | [4] -0.028 | filanesib -0.028 | zotarolimus -0.022 | idasanutlin -0.033 | alisertib 0.02 | [6] -0.001 | gefitinib -0.018 | [5] 0.063 | lapatinib 0 | pictilisib 0.106

EIF2S3 (UniProt P41091)
inactive: saracatinib -0.016 | sotrastaurin 0 | Tubastatin A -0.006 | [1] -0.02 | defactinib 0.114 | rucaparib 0.124 | [2] 0.033 | encorafenib 0.04 | [3] -0.002 | [4] -0.028 | filanesib 0.119 | zotarolimus 0 | idasanutlin 0.07 | alisertib -0.068 | [6] 0.002 | gefitinib -0.033 | [5] -0.07 | lapatinib 0.004 | pictilisib -0.027

EIF2B4 (UniProt Q9UI10)
inactive: saracatinib 0.281 | alvocidib -0.058 | Tubastatin A 0.007 | [1] -0.095 | defactinib 0.091 | rucaparib -0.044 | [2] 0.098 | encorafenib 0.042 | [3] -0.025 | [4] -0.016 | zotarolimus 0.127 | idasanutlin 0.03 | alisertib -0.147 | [6] 0.053 | [5] 0.01 | lapatinib 0.111 | pictilisib -0.25

ELF1 (UniProt P32519)
inactive: saracatinib 0.02 | sotrastaurin -0.027 | Tubastatin A 0.075 | [1] 0.013 | rucaparib -0.301 | [2] -0.03 | encorafenib 0.018 | [4] 0.001 | filanesib 0.028 | zotarolimus -0.019 | idasanutlin 0.089 | [6] -0.297 | gefitinib 0.01 | lapatinib -0.12

EEF1D isoform 2 (UniProt P29692)
inactive: saracatinib -0.04 | sotrastaurin -0.03 | Tubastatin A 0.001 | [1] 0.107 | defactinib -0.011 | rucaparib 0.053 | [2] 0.017 | encorafenib 0.078 | [3] -0.013 | [4] -0.038 | filanesib 0.034 | zotarolimus 0.036 | idasanutlin -0.042 | alisertib -0.016 | [6] 0.028 | gefitinib 0.028 | [5] -0.011 | lapatinib 0.022 | pictilisib -0.01

EIF4G1 isoform 8 (UniProt Q04637)
inactive: saracatinib -0.08 | sotrastaurin -0.36 | Tubastatin A 0.034 | [1] -0.067 | defactinib 0.008 | rucaparib 0.197 | [2] -0.017 | encorafenib 0.092 | [3] -0.05 | [4] 0.01 | filanesib 0.067 | zotarolimus -0.121 | idasanutlin 0.09 | alisertib -0.007 | [6] -0.003 | gefitinib -0.114 | [5] -0.369 | lapatinib -0.073 | pictilisib -0.27

EFL1 (UniProt Q7Z2Z2)
inactive: saracatinib -0.036 | sotrastaurin -0.004 | Tubastatin A -0.007 | [1] -0.014 | defactinib -0.022 | rucaparib 0.015 | [2] 0.019 | encorafenib 0.033 | [3] -0.014 | [4] -0.021 | filanesib -0.069 | zotarolimus 0.022 | idasanutlin -0.071 | alisertib -0.013 | [6] 0.042 | gefitinib 0.019 | [5] 0.033 | lapatinib -0.034 | pictilisib -0.016

EIF4E isoform 2 (UniProt P06730)
inactive: saracatinib 0.04 | sotrastaurin 0.189 | Tubastatin A -0.085 | [1] 0 | defactinib -0.012 | rucaparib 0.008 | [2] 0.133 | encorafenib -0.023 | [3] -0.072 | [4] -0.002 | filanesib -0.038 | idasanutlin -0.085 | alisertib -0.083 | [6] 0.039 | gefitinib 0.112 | lapatinib 0.039
active: zotarolimus 0.346 | [5] 0.354 | pictilisib 0.373
